From paper PMC10163288
This is one part of the list.

B1: il2ra_site1_1z92_normal_mot_be5bd3f495b2ba9d9abb66d04d14a4bf_0001_000000146_0001_37_51_H_._104f9518c2e4434ea70fdb64017d7000_0001_af2_0001_0000100001_0000001_0_a … (protein)
chain: GPEEVIEIIAEAAGLPPEAVERDVKRTAELLNIPPEEALRAALLVVRKEDPRFEEEVEEAERLLK
B2: il2ra_site2_2erj_normal_mot_c2bf78bdce995293a161f7082e24b401_0001_af2_000000082_0001_17_32_H_._HHH_b2_04590_af2_0001_0000300025_0000001_0 (protein)
chain: SSSSNEELRRLYELANQILRLLYEGDEEEARELLRELEELAEKTQSDAVKEIVERLKQELSSSSS
B3: il2ra_site1_2b5i_normal_mot_2cbe48e66a1f39b3fed734b245ab0a04_0001_000000015_0001_17_31_H_._HHH_b2_00579_0001_0000300020_0000001_1_af2pred_dldesign_0_af2pred (protein)
chain: SSSSSDEKKREEVLKLIEEAKELEDPFEAERVLFKAYFLAYSSGDEELVAEVERVFNELSSSSSS
B4: il2ra_site1_2b5i_sap_14_mot_a3b61943b7af24100a309c62926c5c00_0001_af2_000000225_0001_17_32_H_._HHH_b1_03251_0001_0000100011_0000001_0_0001_af2pred_dldesign_0_af … (protein)
chain: SSSSDAAWDEVERLFEEAERLRRAGKPEEARELLERALEIAEANNLTTPAADLRRLLERLSSSSS
B5: il2ra_site1_3nfp_normal_mot_HHH_b2_00857_af2_000000076_0001_1_16_H_._HHH_b1_07967_0001_0000700051_0000001_0_af2pred_0001_af2pred (protein)
chain: SSSSDVEERLEQLLKELEELAERNDTRRFAEVAKEIAKLVDRHDDEEAWRLLRRILREAAGSSSS
B6: il2ra_site1_1z92_normal_mot_HHH_b2_04375_000000267_0001_42_56_H_._HHH_b1_02142_af2_0001_0000200033_0000001_0_af2pred_0001_af2pred_1 (protein)
chain: SSSSDLEEEAKKLVEEIVEELGLSEEDERALRRSAEIAVERGFSEKSIRRALEDAARLLRSSSSS
B7: il2ra_site1_1z92_sap_18_mot_HHH_b1_07323_af2_000000200_0001_41_57_H_._HHH_b2_05598_0001_0000100002_0000001_0_0001 (protein)
chain: DEEALKKDIEAARRLGLPPRSIVLALLRFVRREVGDPEEAERILEELLEKLGDPELLEVLEELIK
B8: il2ra_site1_3nfp_sap_16_mot_HHH_b2_04366_af2_000000103_0001_1_19_H_._HEEHE_1202_0001_0000100003_0000001_1_0001_af2pred_0001_af2pred_swapped (protein)
chain: SKERVKEFLERQIKEYAGADDLEVEFRDRKIEVHVRGTDEKAEEASERAKKLVRKLGIEVEVEVE
B9: il2ra_site2_2erj_sap_28_mot_3b06bd03f1c6bceadc68eab912867b79_0001_000000296_0001_36_50_H_._HHH_b2_07644_af2_0001_0000200004_0000001_0_0001 (protein)
chain: SSSSSDELKRAYELANALMHLVARNDREEFERISEEFEEIVEKLDSRTAREILESLERLISSSSS
B10: il2ra_site1_2b5i_normal_mot_HHH_b2_04910_000000118_0001_1_19_H_._HHH_b1_07122_af2_0001_0000200012_0000001_0_af2pred_0001_af2pred_1 (protein)
chain: SSSSDTEEAVRLLEEANEAFRNGNPEEAEELLEEALEIAKEAGNRLLFRMIKVALEQVRKFSSSS
B11: il2ra_site2_3nfp_sap_21_mot_HHH_b2_00822_000000043_0001_41_55_H_._29ae1e08a2b4f440a426d3aa34ece464_0001_af2_0001_0000100009_0000001_0_0001 (protein)
chain: SSSSSKAEEYLKAALELLREALEHGDEEILRSHAEVVLAMAEDLGDEEAERLAEEILEELSSSSS
B12: il2ra_site1_3nfp_normal_mot_HHH_b1_00630_af2_000000193_0001_42_55_H_._HHH_b1_07411_af2_0001_0000200016_0000001_0 (protein)
chain: SSSSTSEERQEFEEALEEARQLLKEGNPEEARKLLEEILRELEELGDKVAARLVEEILRLISSSS
B13: il2ra_site2_2erj_sap_31_mot_HHH_b2_02949_000000055_0001_1_19_H_._HHH_b1_00412_af2_0001_0000800026_0000001_0_0001_af2pred_0001_af2pred_1_swapped (protein)
chain: SSSDREEVAEEVVRRLEEELGLDEEAQKLLELAAETAIEAGASPEEIELFLELFARLLLEESSSS
B14: il2ra_site2_2erj_sap_27_mot_d513a5c7d2e7ced7c66e00d3c8df735a_0001_000000137_0001_35_49_H_._HHH_b2_01770_0001_0000300008_0000001_0_0001 (protein)
chain: SSSSDQVVRAAEEFAEEAFERGDEDYLRLLLEFARRTAETVNDPELEELVEEIEELLERLRSSSS
B15: il2ra_site1_2b5i_normal_mot_HHH_b1_05188_af2_000000065_0001_43_56_H_._HHH_b2_06122_af2_0001_0000500034_0000001_1_af2pred_0001_af2pred (protein)
chain: SSSSSKQEEVLEIFHEASRLFREGNKEEARRLLEELLKELEERNDEKLRKQVEHFLEAIEKSSSS
B16: il2ra_site2_2erj_sap_10_mot_HHH_b1_07584_000000201_0001_42_55_H_._HHH_b1_02641_af2_0001_0000100003_0000001_0_0001 (protein)
chain: SSSSNEKLKELYELAVRIMHALTRGDPEEVEELLKELKELIEELNSDNAREILKWLEKLLNSSSS
B17: il2ra_site1_3nfp_sap_20_mot_HHH_b2_00213_000000088_0001_1_18_H_._HEEHE_0331_af2_0001_0000400039_0000001_0_0001_af2pred_dldesign_0_af2pred (protein)
chain: SSSSSLRKELERLLKKAYETGKKNDKEKLKKLLEEALKLAKENKAKLSVKFLERALKQLKSSSSS
B18: il2ra_site1_1z92_normal_mot_HHH_b2_07193_000000005_0001_24_40_H_._66959ead3e6c57cb3ef8243f3eb758e0_0001_1_af2_0001_0000200023_0000001_0_af2pred_0001_af2pred (protein)
chain: SDTKEALREAVEKNDEELLREFIELLLEISGDPKLVERFLKVLVRKLGLPPEVLEELRELLEELT

What follows are binders tested against il2ra, P01589 (assay: yeast display titration).
B1 was tested, and the “apparent Kd” value was “inactive: no binding seen”. With B2 the “apparent Kd” value was “inactive: no binding seen”. In the case of B3, the “apparent Kd” value is reported as “inactive: no binding seen”. With B4 the “apparent Kd” value was “inactive: no binding seen”. B5 was tested, and the “apparent Kd” value was “inactive: no binding seen”. In the case of B6, the “apparent Kd” value is reported as “inactive: no binding seen”. For B7, the “apparent Kd” value was “inactive: no binding seen”. B8 was tested, and the “apparent Kd” value was “inactive: no binding seen”. In the case of B9, the “apparent Kd” value is reported as “inactive: no binding seen”. B10 was tested, and the “apparent Kd” value was “inactive: no binding seen”. For B11, the “apparent Kd” value was “inactive: no binding seen”. For B12, the “apparent Kd” value was “inactive: no binding seen”. For B13, the “apparent Kd” value was “inactive: no binding seen”. With B14 the “apparent Kd” value was “inactive: no binding seen”. In the case of B15, the “apparent Kd” value is reported as “inactive: no binding seen”. In the case of B16, the “apparent Kd” value is reported as “inactive: no binding seen”. In the case of B17, the apparent Kd is reported as inactive: > 1.47 µM. B18 was tested, and the “apparent Kd” value was “inactive: no binding seen”.
